The campaign covered roughly 400,000 compounds. About 13,000 (3.2%) were called active. This list was built around the results that the source calls inconclusive (neither active nor inactive); the mix of calls is not that of the screen. Calls follow the shape of the dose curve; as a rule, active = well fitted cell-killing curve with a large enough effect; inconclusive = small, poorly fitted or top-dose-only effect, or effect the other way; inactive = flat fitted curve, though single readings scatter. Where the call is inconclusive, the potency comes from a doubtful curve fit.
Test: qHTS assay for MDR1-selective chemotherapeutics: Primary screen using the drug-selected MDR subline cells KB-V1; also: nearly all actives have a fitted effect of over 60% in size
Conditions: KB-V1 MDR cells viability, CellTiter-Glo, 72 h; activity change, negative = cytotoxicity: at 46.1 µM (top of the series)
How it was run: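 Drug-selected KB-V1 cells, grown in DMEM lacking phenol red with 10% FBS, receive compound titrations; after three days at 37 degrees C, surviving cell ATP is quantified by CellTiter-Glo luminescence and responses normalized and curve-fitted.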
% is scaled to controls: 0 for no effect and ±100 for the full control effect; potency is read from the fitted curve at half-maximal effect.

| SMILES | activity change, negative = cytotoxicity | Potency |
| --- | --- | --- |
| N#Cc1ccc(Oc2nc(C#N)cc(-c3ccccc3)n2)cc1 | inconclusive: -53.8% |  |
| COc1ccc(CN2C(=O)c3ccc(C(=O)O)cc3C2=O)cc1 |  | inconclusive: 29.1 µM [rising, single point] |
| Cc1[nH]c2ccccc2c1C(=O)C(=O)N1c2ccccc2CC1C (centres undefined) |  | inconclusive: 8.2 µM [cytotoxic, partial curve, poor fit] |
| CC(C)c1ccc(NC(=O)CSc2nnc(CN3CCOCC3)n2C)cc1 |  | inactive |
| CCCCSCCCNC(=O)c1ccc2c(c1)N(CC)C(=O)c1ccccc1S2=O (centres undefined) |  | inconclusive: 32.6 µM [cytotoxic, single point] |
| Cc1c(NC(=O)c2cc(-c3ccc(Cl)s3)nc3ccccc23)c(=O)n(-c2ccccc2)n1C |  | inconclusive: 18.4 µM [cytotoxic, single point] |
| CN1CCCN(C(=O)c2ccc(Cl)c(S(=O)(=O)N(C)c3ccccc3)c2)CC1 |  | inconclusive: 18.4 µM [cytotoxic, single point] |
| Cc1cc(NC(=O)c2ccc(Br)o2)cc(-c2nc3ccccc3o2)c1O |  | inconclusive: 14.6 µM [cytotoxic, single point] |
| CC(C)(C)C(=O)Nc1cc(C(F)(F)F)ccc1-n1ccnc1 |  | inconclusive: 29.1 µM [cytotoxic, single point] |
| CCOc1ccc(S(=O)(=O)NCCC(=O)N2CCN(c3ncccn3)CC2)cc1 |  | active: 18.4 µM |
| Cc1c(Cl)cccc1NC(=S)NCc1ccco1 |  | inconclusive: 29.1 µM [cytotoxic, single point] |
| COCCCN(CC(=O)O)S(=O)(=O)c1ccccc1 |  | inconclusive: 20.6 µM [rising, single point] |
| CC(=O)c1ccc(OC(=O)CCc2ccccc2)cc1 |  | inconclusive: 18.4 µM [rising, single point] |
| Cc1ccc(S(=O)(=O)N2[C@H](CC(=O)c3cccs3)OC[C@@H]2C)cc1 |  | inconclusive: 20.6 µM [cytotoxic, partial curve] |
| O=C(c1cccn(Cc2ccc(Cl)c(Cl)c2)c1=O)N1CCOCC1 | inconclusive: -77.9% |  |
| CC(C)(C)c1ccc(C(=O)c2c[nH]c(C(=O)NCC3CCCO3)c2)cc1 (centres undefined) |  | inactive |
| COc1ccc(C(C(=O)Nc2ccc3c(c2)OCCO3)n2c(=O)c(-c3ccco3)nc3ccccc32)cc1 (centres undefined) |  | inconclusive: 9.2 µM [cytotoxic, partial curve] |
| COc1ccc(COc2ccccc2C(=O)NCc2ccccc2)cc1F |  | active: 14.6 µM |
| Cn1cnc([N+](=O)[O-])c1SCCO |  | inconclusive: 16.4 µM [rising, partial curve] |
| COC(=O)c1cn(NC(=O)c2ccc([N+](=O)[O-])cc2Cl)c(=O)c2ccccc12 |  | inactive |
| CC(C)CNc1ncnc2c1ncn2[C@H]1CN(Cc2ccc(-c3ccccc3)cc2)C[C@@H](CO)O1 |  | inconclusive: 2.59 µM [cytotoxic, full curve] |
| Cc1cccc(N2CCN(C(=O)CCN3C(=S)NC(C)(C)CC3C)CC2)c1C (centres undefined) |  | active: 4.11 µM |

| SMILES | activity change, negative = cytotoxicity | Potency |
| --- | --- | --- |
| Nc1nc(SCC(=O)Nc2cccc(F)c2)n[nH]1 | inconclusive: 54% |  |
| COc1ccc(NS(=O)(=O)c2ccc(C(=O)N3CCN(Cc4ccccc4)CC3)cc2)cc1 |  | inconclusive: 0.092 µM [cytotoxic, full curve] |
| COc1cc(NS(=O)(=O)c2ccc(C)cc2)ccc1-n1cnnn1 |  | inconclusive: 16.4 µM [cytotoxic, single point] |
| CC(=O)N1CCc2cc(S(=O)(=O)NCC(=O)NCc3ccc(Cl)cc3)ccc21 |  | inconclusive: 6.51 µM [rising, full curve] |
| Cn1c(SCC(=O)N/N=C/c2cccs2)nc2ccccc21 |  | inactive |
| CN1CCN(CCCNc2nc3ccccc3c3nc(-c4ccccc4)nn23)CC1 |  | inactive |
| CCOc1ccc(/C=c2\sc3nc(-c4ccco4)nn3c2=O)cc1OCC |  | inconclusive: 18.4 µM [rising, single point] |
| CC1CN(CCOc2cccc(Oc3ccccc3)c2)CC(C)O1 (centres undefined) |  | inactive |
| COc1ccc(N2C(=O)CC(N3CCOCC3)C2=O)cc1 (centres undefined) |  | inconclusive: 29.1 µM [rising, single point] |
| CCn1c(=S)sc2c(=O)[nH]c(SCC(=O)Nc3cc(OC)ccc3OC)nc21 |  | inconclusive: 29.1 µM [rising, single point] |
| COc1ccc([C@H]2CC(=O)C[C@@H](CCn3cc(-c4cccnc4)nn3)O2)cc1 |  | inconclusive: 29.1 µM [rising, single point] |
| Cc1cc(C)c(NC(=S)NC(=O)c2c(Cl)c(C)nn2C)c([N+](=O)[O-])c1 |  | inconclusive: 16.4 µM [cytotoxic, single point] |
| O=C(CC1N=C2c3ccccc3N=C(SCc3ccc(Cl)cc3)N2C1=O)NCc1ccco1 (centres undefined) |  | inconclusive: 23.1 µM [cytotoxic, single point] |
| CC1CCc2c(sc3ncnc(SC(C)C(=O)NCC4CCCO4)c23)C1 (centres undefined) |  | inconclusive: 29.1 µM [cytotoxic, single point] |
| COc1ccc(C(C(=O)NCC2CCCO2)N(C(=O)CNC(=O)c2ccco2)c2cc(C)ccc2C)cc1OC (centres undefined) |  | inactive |
| CCOC(=O)N1CCN(c2ncnc3scc(-c4ccccc4)c23)CC1 |  | inconclusive: 29.1 µM [cytotoxic, single point] |
| CCCN(C(=O)c1cc2c(s1)-c1ccccc1OC2)c1ccccc1F |  | inconclusive: 16.4 µM [cytotoxic, single point] |
| COC(=O)c1ccc(C(=O)N(CCN(C)C)c2nc3c(Cl)cccc3s2)cc1 |  | inconclusive: 20.6 µM [cytotoxic, single point] |
| CCc1ccc(OCC(=O)NNC(=O)c2cnccn2)c(Br)c1 |  | inactive |
| CCN(CCCNC(=O)c1c(C)oc2ncn(CC(C)C)c(=O)c12)Cc1ccccc1 |  | inactive |
| CCOC(=O)Cn1c(=O)oc2cc(S(=O)(=O)Nc3cccc(C)c3)ccc21 |  | inactive |
| CCOC(=O)c1[nH]cnc1N=Nc1c(O)ccc2ccccc12 |  | inconclusive: 7.31 µM [cytotoxic, partial curve] |

Taken from above.
Entry of `COc1ccc(COc2ccccc2C(=O)NCc2ccccc2)cc1F` under Potency: active: 14.6 µM
Entry of `Cc1c(Cl)cccc1NC(=S)NCc1ccco1` under Potency: inconclusive: 29.1 µM [cytotoxic, single point]
Entry of `COC(=O)c1cn(NC(=O)c2ccc([N+](=O)[O-])cc2Cl)c(=O)c2ccccc12` under Potency: inactive

Reference: PubChem BioAssay AID1347076 (National Center for Advancing Translational Sciences (NCATS), 2019)
